These are yes or no findings as the source states them, for the method shown. In cells and extracts the contact can be indirect. A result given as binding can be weak or reduced; the word gives no strength. Sequences can lack the tags named with a protein.
Biological target: human HA-tagged TEX11, full-length wild type (human)
Experiment: co-IP; co-transfected HEK293T lysates (25 mM Tris-HCl pH 7.4, 150 mM NaCl, 10 mM EDTA, 1% NP-40, 5% glycerol); magnetic anti-HA tag beads hold HA-SHOC1 or HA-TEX11, 30 min at RT; DYK-M1AP detected by Western blot

binding | Binder
binds | human DYK-tagged M1AP (meiosis 1-associated protein), full-length wild type (protein, UniProt Q8TC57-1 1-530) MHPGRTTGKGPSTHTQIDQQPPRLLIVHIALPSWADICTNLCEALQNFFSLACSLMGPSRMSLFSLYMVQDQHECILPFVQVKGNFARLQTCISELRMLQREGCFRSQGASLRLAVEDGLQQFKQYSRHVTTRAALTYTSLEITILTSQPGKEVVKQLEEGLKDTDLARVRRFQVVEVTKGILEHVDSASPVEDTSNDESSILGTDIDLQTIDNDIVSMEIFFKAWLHNSGTDQEQIHLLLSSQCFSNISRPRDNPMCLKCDLQERLLCPSLLAGTADGSLRMDDPKGDFITLYQMASQSSASHYKLQVIKALKSSGLCESLTYGLPFILRPTSCWQLDWDELETNQQHFHALCHSLLKREWLLLAKGEPPGPGHSQRIPASTFYVIMPSHSLTLLVKAVATRELMLPSTFPLLPEDPHDDSLKNVESMLDSLELEPTYNPLHVQSHLYSHLSSIYAKPQGRLHPHWESRAPRKHPCKTGQLQTNRARATVAPLPMTPVPGRASKMPAASKSSSDAFFLPSEWEKDPSRP
no binding | truncated human DYK-tagged M1AP L433* (c.1297C>T, c.1298T>A p.Leu433Ter) (domain or fragment, UniProt Q8TC57-1 1-432) MHPGRTTGKGPSTHTQIDQQPPRLLIVHIALPSWADICTNLCEALQNFFSLACSLMGPSRMSLFSLYMVQDQHECILPFVQVKGNFARLQTCISELRMLQREGCFRSQGASLRLAVEDGLQQFKQYSRHVTTRAALTYTSLEITILTSQPGKEVVKQLEEGLKDTDLARVRRFQVVEVTKGILEHVDSASPVEDTSNDESSILGTDIDLQTIDNDIVSMEIFFKAWLHNSGTDQEQIHLLLSSQCFSNISRPRDNPMCLKCDLQERLLCPSLLAGTADGSLRMDDPKGDFITLYQMASQSSASHYKLQVIKALKSSGLCESLTYGLPFILRPTSCWQLDWDELETNQQHFHALCHSLLKREWLLLAKGEPPGPGHSQRIPASTFYVIMPSHSLTLLVKAVATRELMLPSTFPLLPEDPHDDSLKNVESMLDS
no binding | truncated human DYK-tagged M1AP Q108* (c.322C>T p.Gln108Ter) (domain or fragment, UniProt Q8TC57-1 1-107) MHPGRTTGKGPSTHTQIDQQPPRLLIVHIALPSWADICTNLCEALQNFFSLACSLMGPSRMSLFSLYMVQDQHECILPFVQVKGNFARLQTCISELRMLQREGCFRS
no binding | truncated human DYK-tagged M1AP C335* (c.1005T>A p.Cys335Ter) (domain or fragment, UniProt Q8TC57-1 1-334) MHPGRTTGKGPSTHTQIDQQPPRLLIVHIALPSWADICTNLCEALQNFFSLACSLMGPSRMSLFSLYMVQDQHECILPFVQVKGNFARLQTCISELRMLQREGCFRSQGASLRLAVEDGLQQFKQYSRHVTTRAALTYTSLEITILTSQPGKEVVKQLEEGLKDTDLARVRRFQVVEVTKGILEHVDSASPVEDTSNDESSILGTDIDLQTIDNDIVSMEIFFKAWLHNSGTDQEQIHLLLSSQCFSNISRPRDNPMCLKCDLQERLLCPSLLAGTADGSLRMDDPKGDFITLYQMASQSSASHYKLQVIKALKSSGLCESLTYGLPFILRPTS

From article PMC12162868
